Source: article PMC4136804

Target: FLAG-tagged PML (isoform III)
Assay: co-IP; myc-tagged ZNF198 and FLAG-tagged PML co-expressed in U2OS cells; anti-myc or anti-FLAG agarose; blots with anti-myc and anti-PML

binding: binds
B1: myc-tagged full-length ZNF198 (protein, UniProt Q9UBW7 1-1377)
chain: MDTSSVGGLELTDQTPVLLGSTAMATSLTNVGNSFSGPANPLVSRSNKFQNSSVEDDDDVVFIEPVQPPPPSVPVVADQRTITFTSSKNEELQGNDSKITPSSKELASQKGSVSETIVIDDEEDMETNQGQEKNSSNFIERRPPETKNRTNDVDFSTSSFSRSKVNAGMGNSGITTEPDSEIQIANVTTLETGVSSVNDGQLENTDGRDMNLMITHVTSLQNTNLGDVSNGLQSSNFGVNIQTYTPSLTSQTKTGVGPFNPGRMNVAGDVFQNGESATHHNPDSWISQSASFPRNQKQPGVDSLSPVASLPKQIFQPSVQQQPTKPVKVTCANCKKPLQKGQTAYQRKGSAHLFCSTTCLSSFSHKPAPKKLCVMCKKDITTMKGTIVAQVDSSESFQEFCSTSCLSLYEDKQNPTKGALNKSRCTICGKLTEIRHEVSFKNMTHKLCSDHCFNRYRMANGLIMNCCEQCGEYLPSKGAGNNVLVIDGQQKRFCCQSCVSEYKQVGSHPSFLKEVRDHMQDSFLMQPEKYGKLTTCTGCRTQCRFFDMTQCIGPNGYMEPYCSTACMNSHKTKYAKSQSLGIICHFCKRNSLPQYQATMPDGKLYNFCNSSCVAKFQALSMQSSPNGQFVAPSDIQLKCNYCKNSFCSKPEILEWENKVHQFCSKTCSDDYKKLHCIVTYCEYCQEEKTLHETVNFSGVKRPFCSEGCKLLYKQDFARRLGLRCVTCNYCSQLCKKGATKELDGVVRDFCSEDCCKKFQDWYYKAARCDCCKSQGTLKERVQWRGEMKHFCDQHCLLRFYCQQNEPNMTTQKGPENLHYDQGCQTSRTKMTGSAPPPSPTPNKEMKNKAVLCKPLTMTKATYCKPHMQTKSCQTDDTWRTEYVPVPIPVPVYIPVPMHMYSQNIPVPTTVPVPVPVPVFLPAPLDSSEKIPAAIEELKSKVSSDALDTELLTMTDMMSEDEGKTETTNINSVIIETDIIGSDLLKNSDPETQSSMPDVPYEPDLDIEIDFPRAAEELDMENEFLLPPVFGEEYEEQPRPRSKKKGAKRKAVSGYQSHDDSSDNSECSFPFKYTYGVNAWKHWVKTRQLDEDLLVLDELKSSKSVKLKEDLLSHTTAELNYGLAHFVNEIRRPNGENYAPDSIYYLCLGIQEYLCGSNRKDNIFIDPGYQTFEQELNKILRSWQPSILPDGSIFSRVEEDYLWRIKQLGSHSPVALLNTLFYFNTKYFGLKTVEQHLRLSFGTVFRHWKKNPLTMENKACLRYQVSSLCGTDNEDKITTGKRKHEDDEPVFEQIENTANPSRCPVKMFECYLSKSPQNLNQRMDVFYLQPECSSSTDSPVWYTSTSLDRNTLENMLVRVLLVKDIYDKDNYELDEDTD

These are yes or no findings as the source states them, for the method shown. Binding seen in cells or lysates may run through a third protein. Binding can be weak; no strength is given. Tags and fused reporters may be left off the sequences shown.
